Results taken from paper PMC4703885.

Biological target: T1, EGFP-tagged RepoMan-WT (UniProt Q69YH5)
T1 sequence: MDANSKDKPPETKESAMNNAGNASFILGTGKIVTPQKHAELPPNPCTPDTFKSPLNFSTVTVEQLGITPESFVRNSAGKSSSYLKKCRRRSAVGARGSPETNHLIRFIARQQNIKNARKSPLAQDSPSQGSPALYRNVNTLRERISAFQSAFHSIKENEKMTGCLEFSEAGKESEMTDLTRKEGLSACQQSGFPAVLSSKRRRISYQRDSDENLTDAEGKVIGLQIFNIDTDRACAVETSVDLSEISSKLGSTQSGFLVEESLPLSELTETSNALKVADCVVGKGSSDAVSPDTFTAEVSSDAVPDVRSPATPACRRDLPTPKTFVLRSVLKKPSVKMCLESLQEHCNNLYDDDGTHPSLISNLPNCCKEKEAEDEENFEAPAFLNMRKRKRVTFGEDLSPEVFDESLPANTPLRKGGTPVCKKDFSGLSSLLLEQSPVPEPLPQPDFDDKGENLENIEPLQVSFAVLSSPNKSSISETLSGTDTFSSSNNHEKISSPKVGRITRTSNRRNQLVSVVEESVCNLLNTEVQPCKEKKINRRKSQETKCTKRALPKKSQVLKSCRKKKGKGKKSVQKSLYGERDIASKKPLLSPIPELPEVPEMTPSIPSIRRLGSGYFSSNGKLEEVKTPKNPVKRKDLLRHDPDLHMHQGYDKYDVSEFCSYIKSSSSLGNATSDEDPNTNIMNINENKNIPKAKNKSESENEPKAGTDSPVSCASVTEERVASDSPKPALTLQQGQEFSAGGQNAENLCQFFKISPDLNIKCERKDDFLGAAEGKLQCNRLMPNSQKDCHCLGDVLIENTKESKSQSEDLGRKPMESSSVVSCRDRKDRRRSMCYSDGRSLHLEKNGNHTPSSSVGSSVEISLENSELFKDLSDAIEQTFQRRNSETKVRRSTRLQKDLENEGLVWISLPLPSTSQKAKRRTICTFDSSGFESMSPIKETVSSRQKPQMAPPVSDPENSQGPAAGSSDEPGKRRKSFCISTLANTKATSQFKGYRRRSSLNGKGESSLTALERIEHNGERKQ
Test: co-IP; EGFP traps of EGFP-RepoMan fusions from lysates of transfected HEK293T cells (non-synchronized in Fig. 3f,j; Nocodazole-arrested in Fig. 2d); immunoblot

binding: binds
Substance: Cyclin B (endogenous) (human (endogenous in HEK293T))

No constants are given. Whether binding was seen depends on the method and setting. In cells and extracts the contact can be indirect. A result given as binding can be weak or reduced; the word gives no strength. Tags and fused reporters may be left off the sequences shown.
